For at least one compound, name, drawing or mass did not settle the structure. Bridge positions count the residues as written; N and C are the ends. Square brackets hold non-standard residues; d marks the D form. Peptide text beside a SMILES is read from it. Orn(iPr) = CC(C)NCCC[C@H](N)C(=O)O; Aad = N[C@@H](CCCC(=O)O)C(=O)O; Dab = NCC[C@H](N)C(=O)O
Target: T1, human oxytocin (hOT) receptor (Homo sapiens, UniProt P30559)
T1 construct: expressed in transfected cells
T1 sequence (P30559 1-389): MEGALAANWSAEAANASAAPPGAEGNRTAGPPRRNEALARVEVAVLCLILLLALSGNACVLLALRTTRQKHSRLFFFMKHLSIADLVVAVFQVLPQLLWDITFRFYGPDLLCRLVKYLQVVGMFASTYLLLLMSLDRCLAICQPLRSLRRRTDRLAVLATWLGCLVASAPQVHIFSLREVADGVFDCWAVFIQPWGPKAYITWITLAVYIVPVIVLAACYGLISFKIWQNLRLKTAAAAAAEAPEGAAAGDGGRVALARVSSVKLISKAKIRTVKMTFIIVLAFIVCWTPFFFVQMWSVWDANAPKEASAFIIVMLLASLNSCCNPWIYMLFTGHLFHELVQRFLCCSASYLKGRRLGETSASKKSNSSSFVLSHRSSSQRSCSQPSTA
Test: luciferase-based transcriptional reporter assay expressing the human oxytocin (hOT) receptor, for selectivity
Format: cell-based
Conditions: agonist efficacy at the hOT receptor compared to AVP; ratio not determined
Method: Agonist activity of compounds on the hV1a receptor was determined in a transcriptional reporter assay by transiently transfecting a hV1a receptor expression DNA into HEK-293 cells in concert with a reporter DNA containing intracellular calcium responsive promoter elements regulating expression of firefly luciferase. See Boss, V., Talpade, D. J., Murphy, T. J. J. Biol. Chem. 1996, May 3; 271(18), 10429-10432 for further guidance on this assay. […] To determine selectivity, compounds were tested in luciferase-based transcriptional reporter assays expressing the human oxytocin (hOT) receptor. Assays for other receptors (hV2, hV1b, rat V1a and rat V2) were also conducted.
The EC50 value given is the geometric mean expressed in nanomol/L (nM). Selectivity values are given as EC50 ratios.

Structure (SMILES)	selectivity hOT/hV1a (class symbol)
CC[C@H](C)[C@@H]1NC(=O)[C@H](Cc2ccccc2)NC(=O)[C@@H](N)CSSC[C@@H](C(=O)N2CCC[C@H]2C(=O)N[C@@H](CCCNC(C)C)C(=O)NCC(N)=O)NC(=O)[C@H](CC(N)=O)NC(=O)[C@H](CCCC(N)=O)NC1=O [Compound 1, [Phe^2, Hgn^4, Orn (i-Pr)^8]VT] (H-CFI[Aad](NH2)NCP[Orn(iPr)]G-NH2; disulfide 1-6; N-terminus assumed)	+ (selective hV1a receptor agonist; EC50 hOT/hV1a ratio not determined due to very low agonist efficacy (<30% compared to AVP) at the hOT receptor)
CCNC(=O)C[C@@H]1NC(=O)[C@H]([C@@H](C)CC)NC(=O)[C@H](Cc2ccccc2)NC(=O)[C@@H](N)CSSC[C@@H](C(=O)N2CCC[C@H]2C(=O)N[C@@H](CCN)C(=O)NCC(N)=O)NC(=O)[C@H](CC(N)=O)NC1=O [Compound 4, [Phe^2,Asn (Et)^4, Dbu^8]VT] (H-CFID(NHEt)NCP[Dab]G-NH2; disulfide 1-6)	+ (selective hV1a receptor agonist; EC50 hOT/hV1a ratio not determined due to very low agonist efficacy (<30% compared to AVP) at the hOT receptor)
